Measurements from PubChem BioAssay AID2685 (National Center for Advancing Translational Sciences (NCATS), 2010).
Some of the results follow. Shown are side measurements of this screen, not its main read-out; they come without a call. Most of these compounds were active or inconclusive in the main read-out, so they are no random draw. Potencies come from curve fits of mixed quality, noted in brackets.

Test: qHTS Assay for Lipid Storage Modulators in Drosophila S3 Cells;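 as to cell number change: cells counted by Cell Tracker Red CMTPX staining in the red channel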
Settings: BODIPY lipid droplet fluorescence, 18-24 h; for cell number change: measured here: cell count max response, cells fed with added oleic acid
In short: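 Drosophila S3 cells got compounds at several concentrations plus oleic acid (400 uM solution). Laser-scanning cytometry with 488 nm excitation read lipid droplets at 500-530 nm and cells at 575-640 nm. Percent activity was relative to 20 uM Triacsin C.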

[1] = measured here: cell number channel AC50, cells fed with added oleic acid
[2] = measured here: lipid fluorescence (Fed channel) AC50, cells fed with added oleic acid

Row | Compound | cell number change [%] | AC50 [1] | AC50 [2]
1 | CCN(CC(=O)Nc1ccccc1OC)CC(=O)Nc1sccc1C#N | 66.1 | 0.411 µM [rising, partial curve, poor fit] | 29.1 µM [rising, single point]
2 | O=C(Nc1ccc(CSc2ccccc2)cc1)c1ccccc1 | -0.494 | – | 0.146 µM [falling, full curve, poor fit]
3 | COc1ccc(CC(=O)NNC(=O)c2ccoc2C)cc1OC | -2.3 | – | 5.8 µM [falling, single point]
4 | CCOC(=O)N1CCN(S(=O)(=O)c2c(C)cc(C)cc2C)CC1 | 4.41 | – | 18.4 µM [falling, single point]
5 | CCOc1ccc(NC(=O)c2ccc3[nH]c(=O)c(=O)[nH]c3c2)cc1 | -7.63 | – | –
6 | Clc1ccc(Cl)c(-c2ccc(/C=N/c3ncn[nH]3)o2)c1 | -4.45 | – | 0.13 µM [falling, full curve, poor fit]
7 | CC(=O)c1cccc(NC(=O)N(c2ccccc2)c2ccccc2)c1 | 10.9 | – | 1.3 µM [falling, full curve]
8 | O=C(NCc1ccco1)c1ccc(CS(=O)(=O)Cc2ccc(Cl)cc2)o1 | 14.3 | – | 5.17 µM [rising, partial curve]
9 | CCC1C/C(=C\c2cccnc2)C(=O)/C(=C/c2cccnc2)C1 (centres undefined) | -6.35 | – | 0.461 µM [rising, partial curve]
10 | Cc1ccccc1N(CC(=O)NC1CCCC1)C(=O)C1(C)CC(=O)N=C2C=CC(Cl)=CN21 (centres undefined) | -26.7 | – | 13 µM [falling, partial curve, poor fit]
11 | N#CC(C#N)C(c1ccsc1)c1c(-c2ccccc2)[nH][nH]c1=O (centres undefined) | – | 6.51 µM [falling, single point] | 0.58 µM [rising, single point]
12 | CCCCn1nnc(NC(=O)c2ccc(-c3ccccc3[N+](=O)[O-])o2)n1 | 2.38 | – | –
13 | N#C/C(=C\C1=C(N2CCOCC2)C(=C\c2ccccc2)/CC1)C(=O)Nc1ccccc1F | -94.4 | 4.61 µM [falling, full curve] | 4.61 µM [falling, full curve]
14 | CC1(C)NC(=O)N(c2ccc([N+](=O)[O-])c(C(F)(F)F)c2)C1=O | 65.8 | – | 9.2 µM [rising, partial curve]
15 | CCN1CCN(CCNC(=O)c2ccc3c(c2)N(Cc2ccc(F)cc2)C(=O)/C(=C/c2ccccc2)S3)CC1 | -55.8 | 25.9 µM [falling, partial curve] | 23.1 µM [falling, partial curve, poor fit]
16 | C/C(=N\NC(=O)OC(C)(C)C)c1ccc(-n2ccnc2)cc1 | -18.8 | – | –
17 | Cc1noc(NS(=O)(=O)c2ccc(NC(=O)CSc3nnc(-c4ccccc4)n3C3CCCCC3)cc2)c1C | 14.2 | – | 0.0651 µM [falling, partial curve, poor fit]
18 | COc1ccc(/C=N\NC(=O)c2c(C)nc3ccc(Br)cn23)cc1 | 8.34 | – | –
19 | CC(=O)c1cnc(-c2ccccc2Cl)s1 | 20.4 | – | –
20 | COc1ccc(/C=N/NS(=O)(=O)c2ccc(NC(C)=O)cc2)cc1 | 14.5 | – | 18.4 µM [rising, partial curve]

Row | Compound | cell number change [%] | AC50 [1] | AC50 [2]
21 | CCOc1ccc(CN(C)C(=O)CNC(=O)c2ccc(Br)o2)cc1OC | 7.92 | – | –
22 | CCC(C)NC(=O)CN(C)S(=O)(=O)c1ccc2c(c1)c(=O)n(C)c(=O)n2C (centres undefined) | -7.87 | – | 14.6 µM [rising, single point]
23 | CCOC(=O)C1=C(N)Oc2ccc3ccccc3c2C1c1ccc(O)cc1 (centres undefined) | -50.5 | 23.1 µM [falling, partial curve] | 0.731 µM [falling, full curve, poor fit]
24 | CCCCC(C(=O)NC(=O)NCc1ccccc1)N1C(=O)c2ccccc2C1=O (centres undefined) | 4.78 | – | –
25 | COc1cc(NC(=O)c2cc3c(=O)n(C)c4ccccc4c3n2C)cc(OC)c1OC | 46.3 | 0.461 µM [rising, full curve] | 1.46 µM [rising, partial curve]
26 | C#CCOCCOCCOCCNc1nc(N2CCN(C(=O)CCCCCCCCCCNC(=O)Cn3cc(CCCCCN)nn3)CC2)nc(N2CCN(C(=O)CCCCCCCCCCNC(=O)[C@@H](CCSC)n3cc(CCO)nn3)CC2)n1 | -27.4 | – | 29.1 µM [falling, single point]
27 | CC(C)OC(=O)c1ccc(NC(=O)CSc2nc3ncccc3[nH]2)cc1 | -56.1 | 9.2 µM [falling, partial curve] | 11.6 µM [falling, partial curve]
28 | Cc1ccnc(-n2sc3ccccc3c2=O)n1 | -74.6 | 20.6 µM [falling, single point] | 18.4 µM [falling, single point]
29 | CCCCCCc1ccc(O)cc1O | -46.1 | 13 µM [falling, partial curve] | 10.3 µM [falling, partial curve]
30 | CC(=O)Nc1cccc(NC(=O)C2CC(=O)N(C3CCCCC3)C2)c1 (centres undefined) | 11.8 | – | 13 µM [rising, partial curve, poor fit]
31 | Cc1ccc(NC(=O)Cn2ncc(Cl)c(Cl)c2=O)cc1S(=O)(=O)N1CCCCC1 | -5.35 | – | 0.326 µM [falling, full curve]
32 | O=[N+]([O-])c1ccc(S(=O)(=O)Nc2ccccn2)cc1 | -8.39 | – | 0.58 µM [falling, single point]
33 | COc1ccc(CNC(=O)CCCn2nc(C)c3c(C)n(-c4ccccc4)nc3c2=O)cc1 | 43 | 29.1 µM [rising, single point] | –
34 | O=C(O)C1CC(=O)N(c2ccc(OCc3ccccc3Cl)cc2)C1 (centres undefined) | 5.75 | – | 0.0731 µM [falling, full curve, poor fit]
35 | CN(C)CCn1c(SCc2ccccc2C#N)nc2c(sc3ccccc32)c1=O | – | 6.51 µM [rising, single point] | –
36 | CCN(CC)S(=O)(=O)c1ccc(N2CCCC2)c(NS(=O)(=O)c2cccs2)c1 | -66.4 | 5.8 µM [falling, full curve] | 1.64 µM [falling, full curve]
37 | CCN(CC(=O)Nc1cc(Cl)ccc1Cl)C(=O)c1ccc(-n2cccn2)cc1 | -9.87 | – | 8.2 µM [rising, partial curve]
38 | CCOc1ccc(C(=O)NC(=S)Nc2ccccc2N2CCC(C)CC2)cc1[N+](=O)[O-] | -3.04 | – | 20.6 µM [rising, single point]
39 | CCCS(=O)(=O)N1CCCC(C(=O)NCCN(CC)c2ccccc2)C1 (centres undefined) | -35.9 | – | –
40 | COc1cc(C)c(Br)cc1S(=O)(=O)NCc1ccncc1 | – | – | 0.112 µM [rising, full curve, poor fit]

Row | Compound | cell number change [%] | AC50 [1] | AC50 [2]
41 | Cc1cc(C)c2nc(SCCC#N)nc(C)c2c1 | 24.8 | 4.11 µM [rising, full curve, poor fit] | –
42 | O=C(NCC(c1ccco1)N1CCc2ccccc21)c1ccccc1 (centres undefined) | -2.24 | – | 20.6 µM [rising, partial curve]
43 | O=C(CCc1nnc2ccc(NCc3ccco3)nn12)Nc1cccc(F)c1 | -2.65 | – | 4.11 µM [falling, partial curve]
44 | COc1ccc(O)c(-c2cc(-c3cccs3)[nH]n2)c1 | -14.2 | – | 29.1 µM [falling, single point]
45 | O=C(c1cc2cc(Cl)ccc2[nH]1)N1CCN(c2ccc(F)cc2)CC1 | – | – | 4.11 µM [rising, partial curve, poor fit]
46 | CCOC(=O)CSc1nc2c(c(=O)[nH]c(=O)n2C)n1Cc1ccccc1 | 9.89 | – | 0.291 µM [falling, partial curve, poor fit]
47 | CCOc1ccc(N2Cc3ccccc3C2)cc1 | -11.9 | – | 6.51 µM [rising, single point]
48 | COc1ccccc1C(=O)N1CCN=C1SCc1cccnc1 | 49.9 | 1.46 µM [rising, full curve] | –
49 | Cc1cc(Nc2ccc(Cl)cc2)nc(NCc2ccccc2)n1 | -89.7 | 29.1 µM [falling, single point] | 29.1 µM [falling, partial curve, poor fit]
50 | CCN(c1ccc(OC)cc1)S(=O)(=O)c1nnc(NC(=O)COc2ccccc2)s1 | -3.63 | – | 4.11 µM [falling, single point]
51 | O=C(CN1C(=O)C2CC=CCC2C1=O)Nc1ccc(-c2nnc3n2CCCCC3)cc1 (centres undefined) | -9.58 | – | –
52 | COC(=O)Cn1cnc2c(C#N)c3n(c2c1=O)CCCCC3 | 99.4 | 16.4 µM [rising, partial curve] | –
53 | CC1CCCCN1C(=O)c1ccc(C(=O)N2CCCCC2C)cc1 (centres undefined) | 1.56 | – | –
54 | O=C(c1cccn(Cc2ccc(C(F)(F)F)cc2)c1=O)N1CCOCC1 | – | 0.82 µM [falling, full curve, poor fit] | –
55 | Cc1ccc(N(C(=O)c2csnn2)C(C(=O)NCc2ccccc2)c2cccnc2)cc1 (centres undefined) | 17.9 | 0.092 µM [rising, full curve, poor fit] | –
56 | COCCn1c(C)cc(C(=O)COC(=O)c2cncc(Br)c2)c1C | 29 | – | –
57 | CCOC(=O)c1sc(NC(=S)NC(=O)c2ccccc2)nc1C | -2.4 | – | 0.731 µM [rising, full curve]
58 | COc1ccc(/C=C/S(=O)(=O)NCc2ccccc2)cc1OC | -2.35 | – | –
59 | Cc1ccc(CO/N=C\Cc2snc(Sc3ncc(C(F)(F)F)cc3Cl)c2C#N)cc1 | – | – | 16.4 µM [falling, partial curve]
60 | CCC(C)(C)n1nnnc1C(c1ccccn1)N1CCOCC1 (centres undefined) | -53.1 | 16.4 µM [falling, single point] | 5.17 µM [falling, full curve]

4 entries from above, sorted by length of the SMILES, ascending.
Row | Compound | cell number change [%] | AC50 [1] | AC50 [2]
52 | COC(=O)Cn1cnc2c(C#N)c3n(c2c1=O)CCCCC3 | 99.4 | 16.4 µM [rising, partial curve] | –
54 | O=C(c1cccn(Cc2ccc(C(F)(F)F)cc2)c1=O)N1CCOCC1 | – | 0.82 µM [falling, full curve, poor fit] | –
46 | CCOC(=O)CSc1nc2c(c(=O)[nH]c(=O)n2C)n1Cc1ccccc1 | 9.89 | – | 0.291 µM [falling, partial curve, poor fit]
51 | O=C(CN1C(=O)C2CC=CCC2C1=O)Nc1ccc(-c2nnc3n2CCCCC3)cc1 (centres undefined) | -9.58 | – | –
